Assay [1] deals with T1, GST-Cgl2215 (C. glutamicum) (UniProt Q8NNI6).
T1 sequence: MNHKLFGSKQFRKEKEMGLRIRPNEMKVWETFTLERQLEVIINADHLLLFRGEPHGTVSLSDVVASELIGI
Kind of assay: affinity purification with mass spectrometry; purified GST-Cgl2215 (0.1 mg) on GST magnetic beads, incubated with wild-type C. glutamicum lysate overnight at 4 °C; washed five times with TEN buffer (50 mM Tris-HCl pH 8.0, 500 mM NaCl); SDS-PAGE, silver stain, bands analysed by LC-MS/MS; only the target purified.

By UniProt entry, the sequences of proteins in these tests, tags left out.
UniProt H7C663: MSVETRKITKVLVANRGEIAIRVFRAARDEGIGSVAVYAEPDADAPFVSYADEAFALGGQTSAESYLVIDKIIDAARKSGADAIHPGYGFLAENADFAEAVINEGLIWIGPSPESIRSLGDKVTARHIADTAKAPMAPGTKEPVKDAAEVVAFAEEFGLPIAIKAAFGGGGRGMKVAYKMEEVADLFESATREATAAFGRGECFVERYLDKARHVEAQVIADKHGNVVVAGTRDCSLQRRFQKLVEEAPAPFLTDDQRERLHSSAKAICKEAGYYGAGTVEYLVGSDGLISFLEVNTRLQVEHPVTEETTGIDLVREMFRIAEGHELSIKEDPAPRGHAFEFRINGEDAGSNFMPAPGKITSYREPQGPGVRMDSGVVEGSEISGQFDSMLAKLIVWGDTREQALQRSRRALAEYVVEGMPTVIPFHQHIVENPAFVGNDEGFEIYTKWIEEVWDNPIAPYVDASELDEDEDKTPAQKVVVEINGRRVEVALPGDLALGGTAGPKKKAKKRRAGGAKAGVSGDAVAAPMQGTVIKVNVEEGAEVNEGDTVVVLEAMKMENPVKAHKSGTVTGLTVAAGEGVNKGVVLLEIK

Assay [2] has as its target T1, GST-Cgl2215 (C. glutamicum). The assay is described as above. This is another data set of the same source.

Like-named read-outs stand apart in the source and are kept apart here. No constants are given. Whether binding was seen depends on the method and setting. Binding seen in cells or lysates may run through a third protein. Here binding means that the protein was enriched with, or labelled near, the bait; the list need not be complete. Where a sequence is shown, tags or fusion partners need not be part of it.

Consider Tkt (enzyme), for which, in assay [1], the binding result was “binds”.

On to “AccBC (from UniProt H7C663 1-591) (enzyme)”, for which, in assay [1], the binding entry was “binds”.

In the case of SdhA (enzyme), the binding entry in assay [1] is recorded as “binds”.

B1: C. glutamicum mycoloyltransferase A (MytA) (enzyme, UniProt P0C1D6 44-657)
chain: QSSNLSSDAVIGSIAQGVTDGLTDYLKPRVEELPAGEVTYPEIAGLPDGVRVISAEWATSKHVILTIQSAAMPERPIKVQLLLPRDWYSSPNREFPEIWALDGLRAIEEQSGWTIETNIEQYYADKNAIVVLPVGGESSFYSDWEGPNNGKNYQWETFLTQELAPILDKGFRSNTDRAITGISMGGTAAVNIATHHPDMFKFVGSFSGYLDTTSAGMPIAISAALADAGGYDANAMWGPVGSERWQENDPKSNVDKLKGKTIYVSSGNGADDFGKEGSVAIGPANAAGVGLEVISRMTSQTFVDRASQAGVEVVASFRPSGVHSWEYWQFEMTQAFPHIANALGMSTEDRGVECAPVGAIADAVADGAMGTCLTNEYDVTGGKAQDFANGRAYWSANTGAFGLVGRINARYSELGGPASWLGYPTSSELKTPDGRGRFVTFEHGSIYWTATTGPWEIPGDMLAAWGTQDYEKGSLGYPTGAAVEYNGGLRQQFEGGYVFRTSNNQSYWVRGEISKKYAEDGIFAQLGFPTGNEKLINGGAFQEFEKGNIYWSASTGAHVILHGDIFDAWGAKGWEQGEYGFPTSDQTAITAGGQTIDFQNGTIRQVNGRIEESR
As to B1, in assay [2], the binding result was “binds”.
